The series relates to type-A human erythrocytes.

The values that follow come from paper PMC9505254 (Pathogens, 2022).

On to `O=C(O)c1cn(C2CC2)c2cc(N3CCNCC3)c(F)cc2c1=O` [Ciprofloxacin], for which the “% Hemolysis Type-A Blood” value is 0%.
